Usually AC50 stands for the concentration giving half of the maximal activity seen. Read a high AC50 as activity only at high concentration.

The structures appear in SMILES notation. Some of the results follow. Further columns of the screen follow, without active or inactive calls. Compounds called inactive in the main read-out are mostly missing here. The note in brackets gives the kind of curve behind each potency; many fits are weak.

Among the data in PubChem BioAssay AID2685 (National Center for Advancing Translational Sciences (NCATS), 2010) are AC50 and cell number change values, retold here.

A short description of this test: qHTS Assay for Lipid Storage Modulators in Drosophila S3 Cells.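 For cell number change: cells counted by Cell Tracker Red CMTPX staining in the red channel.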 As to conditions: BODIPY lipid droplet fluorescence, 18-24 h; for cell number change: measured here: cell count max response, cells fed with added oleic acid. The essentials: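 Drosophila S3 cells loaded with oleic acid (400 uM, as added) and compounds at several concentrations; lipid droplets imaged by 488-nm laser-scanning cytometry, 500–530 nm intensity and object ratio to cell channel. Percent activity normalized to 20 uM Triacsin C.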

[1] abbreviates: measured here: lipid fluorescence (Fed channel) AC50, cells fed with added oleic acid.
The mark [2] stands for this setting: measured here: cell number channel AC50, cells fed with added oleic acid.

For the compound `COc1ccc(Cc2nc3ccccc3[nH]c2=O)cc1`, the half-maximal activity concentration (AC50) under setting [1] was 0.206 µM [falling, single point]. On the same count and under the same terms, the value for `CCCc1[nH]n(-c2ccc([N+](=O)[O-])cc2)c(=O)c1C=NCCc1c[nH]c2ccccc12` was 0.58 µM [rising, single point]. On to `CC(=O)N1CCN(CCN=CC2=C(O)CC(C)(C)CC2=O)CC1`, for which the cell number change is -38.2%. The AC50 under setting [2] is 4.61 µM [falling, full curve]. Besides, under setting [1], the AC50 was 29.1 µM [falling, single point]. Regarding `Cc1cc(C)cc(C(=O)NC(CC(N)=O)c2ccc(NC3CCCCCCC3)c([N+](=O)[O-])c2)c1` (centres undefined), the cell number change was -21.3%. Moreover, under setting [1], the AC50 is 0.00461 µM [rising, full curve, poor fit]. On to `CCC(Cc1ccccc1)NC(=O)Cn1cccc1C(=O)c1ccccc1` (centres undefined), for which the cell number change was found to be 41.6%. Moreover, the AC50 under setting [2] is 16.4 µM [rising, single point]. In addition, under setting [1], the AC50 was 29.1 µM [rising, single point]. On to `COc1ccccc1/C=C1\CCCC2=C1Nc1nnnn1C2c1ccccc1OC` (centres undefined), for which the cell number change stood at 17.3%. Turning to `O=C(COC(=O)COc1ccccc1)NCCc1ccccc1`, the cell number change was -33.3%. Under setting [2], the AC50 is 10.3 µM [falling, partial curve].

`CCC(C)N=CC1=C(O)CC(c2ccccc2)CC1=O` (centres undefined): the cell number change was 11.2%. With `CCOC(=O)c1c(NC(=O)OC)sc(C(=O)N(C)C)c1C`, the cell number change is -31.2%. Also, the AC50 under setting [2] is 8.2 µM [falling, partial curve]. The AC50 under setting [1] is 14.6 µM [rising, partial curve, poor fit].

On to `CCCCN(CC)C(=S)Nc1ccc2nc3n(c(=O)c2c1)CCCCC3`, for which the cell number change is 4.4%. For the same compound, under setting [2], the half-maximal activity concentration (AC50) was 1.84 µM [rising, partial curve]. In addition, the AC50 under setting [1] was 3.26 µM [rising, partial curve]. With `COc1ccc(C(C)NC(=S)NCc2ccc(F)cc2)cc1OC` (centres undefined), the cell number change amounted to 1.47%. The AC50 under setting [2] is 3.26 µM [rising, partial curve, poor fit].

Regarding `COc1ccc(S(=O)(=O)N2CCCN(S(=O)(=O)c3ccc(OC)cc3C)CC2)c(C)c1`, the cell number change was -2.21%. Also, the AC50 under setting [2] is 0.092 µM [falling, full curve, poor fit]. Consider `COc1ccc(NC(=O)C(=O)NCCC2=CCCCC2)c(OC)c1`, for which the cell number change is -44%. Moreover, the concentration at half-maximal activity (AC50) under setting [2] was 6.51 µM [falling, partial curve, poor fit]. With `CS(=O)(=O)c1cnc(-c2ccccc2)nc1-c1ccccc1Cl`, the AC50 under setting [1] was 0.58 µM [rising, partial curve]. The same measure, in the same setting: the value for `O=C(O)CCC(=O)Nc1nnc(C(F)(F)F)s1` was 18.4 µM [falling, partial curve].

Take `O=C(COC(=O)c1cccnc1Cl)NCCc1ccccc1`: the cell number change worked out at 0.491%. On to `Cc1ccc(-n2c(CC#N)n[nH]c2=S)c(C)c1`, for which the cell number change was -23.2%. Besides, the AC50 under setting [2] is 0.164 µM [falling, full curve, poor fit]. Further, the AC50 under setting [1] is 29.1 µM [falling, single point]. With `COC(=O)c1ccc(OC(=O)c2cccnc2)cc1`, the cell number change is 6.43%.

On to `CCOC(=O)C1=C(C)NC(=O)NC1c1ccccc1` (centres undefined), for which the cell number change was 38.8%. In addition, the AC50 under setting [2] was 29.1 µM [rising, single point]. The AC50 under setting [1] was 0.146 µM [falling, full curve, poor fit]. As for `O=C1c2ccccc2C(=O)c2c1cccc2N1CCOCC1`, the cell number change was -26.4%. Further, under setting [1], the AC50 was 0.184 µM [falling, full curve, poor fit]. Consider `CCC(=O)Nc1cccc(Br)c1`, for which the cell number change is -18.8%. Under setting [2], the AC50 is 2.06 µM [falling, single point]. Also, the AC50 under setting [1] is 25.9 µM [falling, single point].

Turning to `O=C(O)CCSc1ccc([N+](=O)[O-])cc1[N+](=O)[O-]`, the AC50 reads like this: under setting [2], 1.84 µM [falling, single point]; under setting [1], 3.26 µM [falling, single point]. Regarding `FC(F)(F)c1cccc(NC(=S)NCc2ccc(Cl)cc2)c1`, the cell number change is -43.6%. Moreover, under setting [2], the AC50 was 8.2 µM [falling, partial curve]. In addition, the half-maximal activity concentration (AC50) under setting [1] was 29.1 µM [falling, single point].

For the compound `CC1(C)CC(=O)C(/C=N/c2ncccc2C(=O)O)=C(O)C1`, the cell number change was determined as 23.1%. The AC50 under setting [1] was 1.46 µM [rising, full curve, poor fit]. In the case of `Cc1ccc(-n2ncc3c(=O)n(CC(=O)NCC4CCCO4)cnc32)cc1` (centres undefined), the cell number change was -14.3%. Under setting [1], the AC50 was 0.651 µM [rising, single point]. For `O=C(O)CSc1nnc(COc2cccc3cccnc23)n1-c1ccc(Cl)cc1`, the cell number change came out at 27.6%.

`COc1ccc(C(C)C)cc1S(=O)(=O)NCC1CCCO1` (centres undefined): the cell number change is 49.5%. Under setting [2], the half-maximal activity concentration (AC50) was 6.51 µM [rising, partial curve]. For `Cc1cccc(N2CCN(S(=O)(=O)c3ccc4c(c3)CCN4C(=O)CCC(=O)O)CC2C)c1` (centres undefined), the cell number change is -19%. The AC50 under setting [1] is 6.51 µM [falling, single point]. Regarding `O=[N+]([O-])c1cccc(P(=O)(O)c2cccc([N+](=O)[O-])c2)c1`, the cell number change is -41.3%. Also, the half-maximal activity concentration (AC50) under setting [1] was 0.461 µM [falling, full curve].

As for `CCCCNS(=O)(=O)c1ccc(NC(=O)c2cccs2)cc1`, the cell number change came out at 0.287%. In the case of `NC(=O)c1ccc(N2CCN(c3ccc(O)cc3)CC2)c([N+](=O)[O-])c1`, the cell number change was -7.69%. In addition, under setting [1], the AC50 was 7.31 µM [falling, partial curve]. With `Cc1csc(SC(C)C(=O)NCC2CCCO2)n1` (centres undefined), the cell number change was -5.23%. Besides, the AC50 under setting [1] is 18.4 µM [rising, partial curve]. Consider `Fc1cccc(-c2c(-c3ccccc3)ncc3cc(F)ccc23)c1`, for which the cell number change was 10.6%. For the same compound, the AC50 under setting [1] was 0.58 µM [falling, single point].

In the case of `COCC(C)NC(=O)Cc1ccc(F)cc1` (centres undefined), the cell number change was -61.9%. Moreover, under setting [2], the AC50 is 16.4 µM [falling, partial curve]. As to `Cc1cc(=O)n2nc(N3CCCC(C(=O)Nc4ccc(C)c(C)c4)C3)sc2n1` (centres undefined), the cell number change is -1.44%. For the same compound, the AC50 under setting [1] was 11.6 µM [falling, single point].

`Cc1c(-c2cccc(Cl)c2)nc2ccccc2c1C(=O)OCC(=O)Nc1ccc2c(c1)OCO2`: the cell number change is -5.05%. For the same compound, the AC50 under setting [1] is 1.84 µM [rising, partial curve]. With `CSc1ccc(C2NC(=O)c3c(sc4c3CCN(C)C4)N2)cc1` (centres undefined), the cell number change is -30.1%. Further, the AC50 under setting [2] is 0.103 µM [falling, full curve, poor fit]. In addition, under setting [1], the half-maximal activity concentration (AC50) is 0.461 µM [rising, full curve]. Consider `O=C(NCCCN1CCCC1=O)c1cc(S(=O)(=O)N2CCOCC2)c(Cl)cc1Cl`, for which the cell number change is -6.02%. Regarding `CCn1cc(C(=O)NC2CCc3ccccc32)c(=O)c2ccc(C)nc21` (centres undefined), the cell number change turned out to be 25.2%. Further, the AC50 under setting [2] was 0.731 µM [rising, partial curve].

Regarding `O=C(Nc1cccn2ncnc12)c1ccccc1`, the cell number change was found to be 158%. Under setting [2], the AC50 is 6.51 µM [rising, full curve]. Take `COC(=O)c1ccc(Cn2nc(C)c([N+](=O)[O-])c2C)o1`: the cell number change was -38.1%. Besides, the AC50 under setting [2] is 9.2 µM [falling, partial curve]. Further, the AC50 under setting [1] is 18.4 µM [falling, partial curve].

As for `Cc1cc2[nH]cnc2c([N+](=O)[O-])c1C`, the cell number change turned out to be 28.7%. Under setting [1], the concentration at half-maximal activity (AC50) was 29.1 µM [rising, single point]. For the compound `Cc1cc(=O)oc2cc(OCC(=O)N3CCN(c4ccc(F)cc4)CC3)c(Cl)cc12`, the cell number change is 6.6%. Turning to `NNC(=O)Cn1c(COc2ccc(Cl)cc2)nc2ccccc21`, the cell number change was 26.6%. Under setting [1], the AC50 is 6.51 µM [rising, partial curve]. `NC(=O)CC12CC3CC(C1)CC(CC(N)=O)(C3)C2`: the cell number change is -35.4%. In addition, the AC50 under setting [2] was 0.58 µM [falling, full curve]. Besides, the AC50 under setting [1] is 1.16 µM [falling, full curve].

On to `OC(CNC1CCCc2ccccc21)COc1ccc2ccccc2c1` (centres undefined), for which the cell number change is -47.2%. Also, the AC50 under setting [2] is 29.1 µM [falling, single point]. As to `CCOc1ccc(-c2nnc(-c3cccs3)o2)cc1OCC`, the cell number change was 4.76%. Further, the AC50 under setting [1] was 0.00461 µM [rising, full curve, poor fit]. For the compound `CC1CCCCC12NC(=O)N(CC(=O)N1CCc3ccccc3C1)C2=O` (centres undefined), the cell number change is -25%. Further, under setting [2], the AC50 was 3.66 µM [falling, full curve, poor fit]. Under setting [1], the AC50 was 29.1 µM [rising, single point]. With `CCc1ccccc1NC(=O)CCNS(=O)(=O)c1cc(Br)cnc1N`, the AC50 under setting [1] was 0.116 µM [rising, single point]. Regarding `CC(=O)c1cccc(NC(=O)CSc2nc(C3CC3)nc3ccccc23)c1`, the cell number change was -34.1%. Further, under setting [2], the AC50 is 32.6 µM [falling, single point]. Under setting [1], the AC50 is 29.1 µM [falling, single point]. Regarding `Cc1ccc(CNC(=O)c2cc3cc(Br)ccc3oc2=N)cc1`, the cell number change amounted to 3.76%. Consider `COc1ccccc1-n1cnc(N)c1C(=O)c1ccccc1`, for which the cell number change came out at 32.3%. The half-maximal activity concentration (AC50) under setting [2] is 7.31 µM [rising, partial curve]. Under setting [1], the AC50 is 16.4 µM [falling, partial curve]. `COc1ccnc(N=CNOCc2ccc(C)cc2)c1C#N`: the cell number change was determined as 20.7%.

As for `O=C(NCCCn1ccnc1)/C(=C/c1cccnc1)NC(=O)c1ccco1`, the cell number change was -29.4%. In addition, the AC50 under setting [2] was 0.0259 µM [falling, full curve, poor fit]. Under setting [1], the half-maximal activity concentration (AC50) was 0.00461 µM [falling, full curve, poor fit].

In the case of `CCC(Oc1ccccc1)C(=O)O/N=C(\N)c1ccc(OC)c(OC)c1` (centres undefined), the cell number change was -3.75%. Also, the AC50 under setting [2] is 0.0058 µM [falling, full curve, poor fit]. Further, the AC50 under setting [1] is 0.00461 µM [falling, full curve, poor fit]. Turning to `Cc1cccc(C)c1NC(=O)CN(c1ccccn1)S(=O)(=O)c1ccc(F)cc1`, the cell number change was determined as 10%. Moreover, the AC50 under setting [1] is 1.64 µM [rising, partial curve]. With `Cc1ccc(C(C#N)c2ccc(C(=O)c3ccc(F)cc3)cc2)cc1` (centres undefined), the cell number change was -26%. Besides, the AC50 under setting [1] is 23.1 µM [falling, single point].

Turning to `CCc1ccc(CN(C)C(=O)c2cc(S(=O)(=O)N3CCOCC3)ccc2N2CCCC2)cc1`, the cell number change was determined as 36.2%. Moreover, under setting [2], the AC50 was 29.1 µM [rising, single point]. With `O=C(c1ccccc1)N(Cc1cccc(Br)c1)C1CCS(=O)(=O)C1` (centres undefined), the cell number change is -1.65%.

Take `CCC(Sc1nc2ccsc2c(=O)n1Cc1ccc(C(=O)O)cc1)C(=O)Nc1ccc(C)c(Cl)c1` (centres undefined): the cell number change is -29.1%.
